The target of test [1] is Flag-tagged PAX1 cloned from human cDNA (human) (UniProt P15863). The experiment in a line: co-IP; semiendogenous co-IP in HEK293FT cells transfected with 2 ug Flag-tagged PAX1; with or without CoCl2 (hypoxia mimetic, 14 h), interaction strengthened dose-dependently.
For test [2] the target is unchanged. Kind of test: co-IP; HEK293FT cells co-transfected with Myc-tagged FOXO1 and a Flag-tagged Pax protein; lysate immunoprecipitated with anti-Flag M2 affinity resin, immunoblotted; also after CoCl2 (2, 20, 200, 400 umol/L, 14 h), which strengthened the PAX1-FOXO1 interaction. On the technique in general: Immunoblotting shows a protein as a band on a membrane.
Test [3] addresses Flag-tagged mouse Pax1 (mouse) (UniProt P09084). Described as above.

Sequences of proteins named here, by UniProt entry; tags and fusion partners are left off.
UniProt P15863: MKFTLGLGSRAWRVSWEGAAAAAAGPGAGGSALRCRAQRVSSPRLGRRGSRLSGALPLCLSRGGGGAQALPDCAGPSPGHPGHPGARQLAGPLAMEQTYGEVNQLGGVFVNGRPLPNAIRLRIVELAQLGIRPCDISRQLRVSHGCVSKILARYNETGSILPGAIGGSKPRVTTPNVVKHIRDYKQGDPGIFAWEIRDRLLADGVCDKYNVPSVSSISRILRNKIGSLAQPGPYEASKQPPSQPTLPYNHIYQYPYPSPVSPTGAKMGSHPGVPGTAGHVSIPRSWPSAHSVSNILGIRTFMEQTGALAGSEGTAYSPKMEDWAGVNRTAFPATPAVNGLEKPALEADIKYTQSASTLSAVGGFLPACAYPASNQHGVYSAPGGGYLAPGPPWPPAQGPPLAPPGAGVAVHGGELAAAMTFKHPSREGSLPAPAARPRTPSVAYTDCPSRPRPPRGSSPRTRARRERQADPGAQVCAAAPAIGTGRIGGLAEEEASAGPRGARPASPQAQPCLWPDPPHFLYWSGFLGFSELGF
UniProt P09084: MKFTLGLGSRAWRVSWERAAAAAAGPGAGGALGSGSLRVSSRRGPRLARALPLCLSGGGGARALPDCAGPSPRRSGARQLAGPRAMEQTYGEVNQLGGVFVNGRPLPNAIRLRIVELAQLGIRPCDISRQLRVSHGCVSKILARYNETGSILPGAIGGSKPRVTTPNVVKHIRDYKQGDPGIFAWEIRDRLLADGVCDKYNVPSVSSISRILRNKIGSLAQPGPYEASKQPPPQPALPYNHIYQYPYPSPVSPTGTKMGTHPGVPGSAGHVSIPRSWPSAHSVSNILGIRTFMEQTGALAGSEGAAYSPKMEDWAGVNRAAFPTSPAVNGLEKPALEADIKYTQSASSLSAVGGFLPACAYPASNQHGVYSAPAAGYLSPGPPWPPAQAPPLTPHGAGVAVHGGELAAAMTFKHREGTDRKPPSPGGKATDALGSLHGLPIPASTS
UniProt Q12778: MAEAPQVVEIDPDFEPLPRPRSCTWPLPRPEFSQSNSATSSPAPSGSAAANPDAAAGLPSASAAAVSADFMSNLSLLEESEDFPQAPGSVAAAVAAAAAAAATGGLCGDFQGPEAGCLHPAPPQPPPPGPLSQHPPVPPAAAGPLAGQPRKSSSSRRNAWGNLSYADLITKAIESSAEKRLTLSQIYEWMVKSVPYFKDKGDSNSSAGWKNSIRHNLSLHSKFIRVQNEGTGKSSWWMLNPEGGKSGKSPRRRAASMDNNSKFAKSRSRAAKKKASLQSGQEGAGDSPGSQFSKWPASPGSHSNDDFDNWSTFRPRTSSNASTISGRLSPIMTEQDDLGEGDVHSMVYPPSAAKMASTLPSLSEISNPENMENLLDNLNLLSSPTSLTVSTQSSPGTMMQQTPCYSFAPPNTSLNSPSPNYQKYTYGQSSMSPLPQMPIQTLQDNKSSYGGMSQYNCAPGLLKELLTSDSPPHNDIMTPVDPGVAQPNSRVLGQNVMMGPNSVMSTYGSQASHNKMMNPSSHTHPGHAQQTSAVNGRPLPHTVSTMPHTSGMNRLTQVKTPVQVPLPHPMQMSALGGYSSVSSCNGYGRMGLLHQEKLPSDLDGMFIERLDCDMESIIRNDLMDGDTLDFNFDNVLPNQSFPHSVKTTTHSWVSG

Results are given in words; binding and its absence hold for the method and conditions named. Binding seen in cells or lysates may run through a third protein. Some binding calls cover weakened binding; strength is not graded here.

Experimental findings from publication PMC4147360 are described below.

For “FOXO1, endogenous in HEK293FT cells (from UniProt Q12778 1-655)”, in test [1], the binding result is “binds”.

With “Myc-tagged FOXO1 (from UniProt Q12778 1-655)”, the binding entry in test [2] and in test [3] was “binds” each time.
